PMC9435518
These are yes or no findings as the source states them, for the method shown. In cells and extracts the contact can be indirect. A result given as binding can be weak or reduced; the word gives no strength.

Biological target: T1, TNF receptor-associated factor 6 (rat (endogenous in H9c2)) (UniProt B5DF45)
T1 sequence: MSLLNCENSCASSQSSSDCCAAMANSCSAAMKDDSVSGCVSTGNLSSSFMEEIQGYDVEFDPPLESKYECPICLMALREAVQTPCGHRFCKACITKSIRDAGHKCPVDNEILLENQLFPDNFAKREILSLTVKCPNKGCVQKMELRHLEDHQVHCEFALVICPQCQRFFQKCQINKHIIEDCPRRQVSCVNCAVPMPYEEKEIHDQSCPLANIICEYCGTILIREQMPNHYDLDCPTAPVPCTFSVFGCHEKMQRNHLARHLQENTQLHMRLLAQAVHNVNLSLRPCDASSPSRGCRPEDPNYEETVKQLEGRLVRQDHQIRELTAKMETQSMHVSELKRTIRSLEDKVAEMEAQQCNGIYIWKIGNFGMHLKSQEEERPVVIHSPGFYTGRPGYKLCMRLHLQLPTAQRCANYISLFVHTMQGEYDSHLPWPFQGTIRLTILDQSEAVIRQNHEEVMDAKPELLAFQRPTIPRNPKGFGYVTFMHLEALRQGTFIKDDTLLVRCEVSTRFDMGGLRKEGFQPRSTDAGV
Test: co-IP; H9c2 cells after H/R; lysed in IP buffer (20 mmol/L Tris-HCl pH 8.0, 150 mmol/L NaCl, 0.5% NP-40, 1 mmol/L EDTA, protease inhibitors); TRAF6 antibody or normal IgG, protein A/G agarose beads 3 h at 4 °C; immunoblot

## Tripartite motif (TRIM) 38 (rat (endogenous in H9c2))
  binding: binds
